# The full ranking holds about 33,000 sequences; the median of “E-score (-0.5 to 0.5)” is about -0.0034, and the highest 2% start at about 0.25. This is one part of the list.
# Target: T1, Yap3 (UniProt P38749)
# T1 sequence: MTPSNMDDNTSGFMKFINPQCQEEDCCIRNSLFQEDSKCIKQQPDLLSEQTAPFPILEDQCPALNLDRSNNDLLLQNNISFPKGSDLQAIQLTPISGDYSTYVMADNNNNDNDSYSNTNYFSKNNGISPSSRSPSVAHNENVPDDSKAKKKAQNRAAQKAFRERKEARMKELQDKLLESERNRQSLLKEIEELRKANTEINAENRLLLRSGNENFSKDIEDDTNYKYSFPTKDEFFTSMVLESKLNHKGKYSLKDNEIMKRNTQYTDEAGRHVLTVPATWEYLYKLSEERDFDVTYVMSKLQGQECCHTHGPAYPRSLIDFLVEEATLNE
# Assay: PBM E-score (8-mer binding enrichment) (E-score (-0.5 to 0.5)); higher = stronger / more preferred TF binding
# Conditions: protein concentration: 100 nM; construct: GST-full length
# Method in brief: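 E-scores (a modified Wilcoxon-Mann-Whitney statistic) were assigned by the Universal PBM Analysis Suite to every ungapped eight-base word pooled with its reverse complement. The input came from universal all-10-mer Agilent arrays made double-stranded by primer extension and probed with GST-tagged yeast transcription factors at about 100-200 nM. Fluorescent anti-GST detected bound protein, and masliner normalised the scans.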
row,Sequence,PBM E-score
1,AGAGATGC,-0.117
2,ATCCGGAT,0.155
3,ACATCAAA,0.087
4,CCAAAGGA,-0.024
5,GGATCGAC,-0.0983
6,ACCGTACG,-0.0368
7,ACAACCCT,-0.0399
8,ATTTGAAA,0.205
9,ATCAGGAT,0.0628
10,CTTCAAAG,-0.0592
11,CCAGGTAG,-0.0675
12,CAGTCCAC,-0.126
13,CGACGTAG,-0.305
14,ATGTACAG,-0.0314
15,CAATTCGA,-0.102
16,GCTTATCC,0.131
17,GCAGATCA,-0.105
18,CCTCTACG,-0.219
19,CAATAAGG,0.018
20,GCAATTAC,0.102
21,TAATCAAA,0.285
22,AAACCTAT,0.0756
23,ATGGCGGC,-0.123
24,ACTGACCA,-0.125
25,AAACCAAC,-0.115

row,Sequence,PBM E-score
1,ATTATAGG,0.158
2,AATTACAC,0.187
3,ATCGTATA,0.114
4,CAAGTGCA,-0.198
5,ACACCAAT,0.202
6,CTATATGA,0.142
7,TCCTGACA,0.0799
8,ACCAGGAT,0.172
9,CCTCCGGC,-0.256
10,CACCTTCG,-0.146
11,GGGTATAC,0.034
12,GCGGACTA,-0.0591
13,CGAATTAG,0.135
14,AACGTGCG,-0.0415
15,ATAAGTGG,0.0608
16,CGCACCAC,-0.131
17,CTACTTCA,-0.0894
18,TCGCTGAA,0.0842
19,TCGCACAA,-0.00784
20,AGGCGGAA,0.0524
21,GGGCGGTA,-0.21
22,AGGCAACA,-0.0941
23,ATGTAGGC,0.0427
24,ATACATTG,0.18
25,AGAGCGTC,-0.109

row,Sequence,PBM E-score
1,GGCAGCTA,0.0423
2,GTGCATCA,-0.00364
3,AGGTCAAT,0.147
4,CCACGGTC,-0.204
5,ACGACCAT,-0.0854
6,CCAACCCA,-0.189
7,ATTCAGGC,-0.009
8,ACACGGTG,-0.0609
9,CGGATCGA,-0.088
10,AAAGGCGA,-0.16
11,GGCGCTAC,-0.299
12,TATCTGGA,-0.0885
13,ACTTCTAC,0.05
14,AGCGTGTC,-0.219
15,CGCCGACA,-0.0696
16,CACGCCGC,-0.212
17,ACTGTACA,0.0293
18,TAAAAAAA,0.0893
19,GGTTGAGA,-0.162
20,ATTCCTAG,0.126
21,ACGGCTTG,-0.106
22,CGGTGTGC,-0.294
23,AGCGGTAT,0.0682
24,CAGAACTG,0.157
25,AATATTCT,0.133

# Retrieved one by one from above, two records:
row,Sequence,PBM E-score
11,GGCGCTAC,-0.299
19,GGTTGAGA,-0.162

# (further entries)

row,Sequence,PBM E-score
1,CGGACCCA,-0.232
2,CAGCCAAC,-0.132
3,CTATATAA,0.121
4,AAGGCAGG,-0.146
5,AACGTGAG,-0.0657
6,ATGGTGAA,0.0693
7,AAAACTAA,0.298
8,GCATTCCA,-0.129
9,ATGAATCC,0.0786
10,CTGATGCA,-0.0709
11,CGCCGGTA,-0.0569
12,CACGGGAG,-0.203
13,CAGCCGAA,-0.139
14,ACGGGCCT,-0.349
15,AAACTATT,0.221
16,GATCCGGC,-0.0157
17,CTCATATA,0.18
18,CGCATCCC,-0.277
19,GTTAAGTA,0.0362
20,AATATCGA,0.233
21,CGTACGTA,0.148
22,AGCGCAGA,-0.182
23,CGCGAAAC,0.121
24,ATCTAGGA,0.0422
25,ACAAGCGT,-0.0211

row,Sequence,PBM E-score
1,ATGATAAG,0.233
2,AATAAGGT,0.0306
3,CCGATGAC,0.0246
4,CCACTCGG,-0.229
5,TATACGCA,0.0612
6,AGTCGCGC,0.119
7,ACAGCGAT,-0.106
8,CGTCCTGC,-0.239
9,CGATGACC,-0.041
10,ATCTTTAG,0.0351
11,CCAGTGCG,-0.204
12,CATGTTGC,-0.0984
13,ACCAATTC,0.149
14,CGGCTCCA,-0.066
15,CAAACAGA,0.176
16,ATTCCGCC,0.132
17,AGATTCTA,-0.0221
18,ACCCGTAT,0.0604
19,GCGTCTAC,-0.136
20,AGGCTTAG,-0.0415
21,GCAAGGAA,0.0864
22,CAAAGTAC,0.0306
23,CACGAATA,0.192
24,AATTAAAC,0.139
25,CTATCCGC,0.027

row,Sequence,PBM E-score
1,GACCCAGC,-0.188
2,CTTATTGA,0.0574
3,CAGGTCGG,-0.138
4,GCAGGAGA,-0.0986
5,ACCACTTA,0.06
6,CAGCCATC,-0.068
7,AGCGGGCG,-0.137
8,ATACTACG,0.0912
9,AACATTAC,0.149
10,CATCAATA,0.111
11,CGAAACCA,0.112
12,ACCGATAT,-0.0197
13,ACGCCGAA,-0.0114
14,CAATAGGA,0.0855
15,CGAACCCG,-0.171
16,ACAAACGC,0.0787
17,AAGCTTAT,0.0886
18,AGATGGGC,-0.0911
19,TAGTAATA,0.204
20,ACTACCAT,0.11
21,ACTAGGGA,-0.133
22,AGATATCT,-0.0346
23,CTCGGTAA,0.053
24,AACAACAC,0.303
25,CCATTCGG,0.0445

row,Sequence,PBM E-score
1,AAGAGACT,-0.153
2,CATATGTA,0.108
3,GTATGTGA,0.0622
4,CGTAAACA,0.14
5,GTCAGGTA,0.00896
6,ATAGAGCA,0.0256
7,ACGCTACG,-0.0867
8,GACGTAGC,-0.222
9,CTGTCCTC,-0.1
10,CTTCATTA,0.242
11,CGAGGTAC,-0.138
12,AAATGGGC,-0.124
13,CTACTTCC,0.0051
14,TAGTGATA,-0.0405
15,ATATTCTA,0.175
16,AGCTGACG,0.00199
17,CGACATGA,-0.107
18,TAGCTTCA,-0.0997
19,GGACCAAC,-0.182
20,TGTATACA,0.164
21,GCAGCCTA,-0.0965
22,GTGCATTA,0.0488

# In a second layout: entries from further up
row | Sequence | PBM E-score
16 | CGCACCAC | -0.131
17 | CTCATATA | 0.18
9 | AACATTAC | 0.149
